Like-named read-outs stand apart in the source and are kept apart here. Part of at least one peptide drawing is inferred or uncertain, most often the ends. Ends that are not written are not given here.
Columns and labels:
[1] = tested on: Neisseria gonorrhoeae; format: cell-based
[2] = tested on: E. coli ATCC 25922; format: cell-based, Escherichia coli; details: LPS 0.1 to 10 μg/mL
[3] = tested on: E. coli (ATCC 25922); experiment: Effect of sodium chloride on antimicrobial activity, E. coli; format: cell-based, Escherichia coli; details: salt 15 to 300 μM as printed
[4] = tested on: Pseudomonas aeruginosa; format: cell-based
Excerpt: Microorganisms against which a polypeptide of the invention is active include prokaryotic and eukaryotic cells such as Gram-negative and Gram-positive bacteria, yeast and protozoa. Non-limiting examples include Listeria monocytogenes, Staphylococcus aureus, Escherichia coli, Klebsiella pneumoniae, Salmonella typhimurium, Pseudomonas aeruginosa, Proteus mirabilis, Salmonella enteritidis, Neisseria gonorrhoeae, Ureaplasma canigenitalium, Ureaplasma urealyticum, Candida albicans, Trichomonas vaginalis, Treponema pallidum or Chlamydia trachomatis, or a spoilage organism. […] MIC antimicrobial activity refers to complete inhibition of the growth of a microorganism, as judged by the naked eye, after a selected period of incubation. The method used to determine MIC is that set forth in Sang et al., Infection and Immunity, 2611-20 (May, 2005).
Microorganisms evaluated were: Candida albicans ATCC 11006 and 14053, Escherichia coli ATCC 25922, 700336, 700378, and BAA-457, Klebsiella pneumoniae ATCC 10031, Listeria monocytogenes ATCC 19155, Proteus mirabilis ATCC 12453, Pseudomonas aeruginosa ATCC 10145, Salmonella Enteritidis ATCC 13076, Salmonella Typhimurium ATCC 13311, Staphylococcus aureus ATCC 10832, Ureaplasma canigenitalium ATCC 51252, and Ureaplasma urealyticum ATCC 27619. […] Initial bacterial concentrations were determined (Ferraro et al., Manual NCCLS #M7-A6, 6th ed., Wayne, Pa. (2003)). […]

[5] = tested on: Trichomonas vaginalis strain T1; format: cell-based
[6] = tested on: L. monocytogenes (ATCC 19115); experiment: Effect of sodium chloride on antimicrobial activity, L. monocytogenes; format: cell-based, Listeria monocytogenes; details: salt 15 to 300 μM as printed

Sequence: RLKELITTGGQKIGEKIRRIGQRIKDFFKNLQPREEKS [K9CATH]
- antimicrobial activity against N. gonorrhoeae relative to the most potent natural cathelicidin reported [1]: 4-8 times
- increase of MIC by LPS [2]: 60 fold
- dependence of bactericidal activity on salt concentration [3]: independent of the salt concentration
- activity against P. aeruginosa relative to human LL-37 [4]: threefold more active
- effect on parasite viability ([5]; 12.5 μM or lower): negligible effect
- effect on parasite viability ([5]; 25 μM): modest effect
- effect on parasite viability ([5]; 50 μM): modest effect
- motile parasites ([5]; 100 μM): 20%
- parasite cultures killed ([5]; 100 μM, highest concentration tested): about 80%
- dependence of bactericidal activity on salt concentration [6]: independent of the salt concentration

— patent US7985832B2, “Antimicrobial cathelicidin peptides” (Kansas State University Research Foundation, priority 2005, dated 2011)
